Measurements from publication PMC11915870.
No constants are given. Whether binding was seen depends on the method and setting. In cells and extracts the contact can be indirect. Some entries that bind do so weakly or less than the wild type.

By UniProt entry, the sequences of proteins in these tests, tags left out.
UniProt Q13547: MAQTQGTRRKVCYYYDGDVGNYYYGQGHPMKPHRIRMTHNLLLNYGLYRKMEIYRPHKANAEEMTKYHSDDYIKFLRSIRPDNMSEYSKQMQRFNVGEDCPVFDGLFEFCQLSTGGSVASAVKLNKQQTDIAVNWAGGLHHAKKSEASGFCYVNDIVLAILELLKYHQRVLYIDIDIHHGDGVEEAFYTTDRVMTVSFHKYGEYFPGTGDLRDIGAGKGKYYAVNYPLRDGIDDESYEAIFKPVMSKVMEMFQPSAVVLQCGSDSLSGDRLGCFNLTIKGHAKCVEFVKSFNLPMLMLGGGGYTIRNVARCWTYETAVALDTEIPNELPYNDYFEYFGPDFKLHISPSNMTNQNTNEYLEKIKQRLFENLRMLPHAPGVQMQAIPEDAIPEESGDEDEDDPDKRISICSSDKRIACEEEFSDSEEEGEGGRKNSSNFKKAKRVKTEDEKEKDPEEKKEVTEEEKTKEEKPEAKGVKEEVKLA
UniProt Q92769: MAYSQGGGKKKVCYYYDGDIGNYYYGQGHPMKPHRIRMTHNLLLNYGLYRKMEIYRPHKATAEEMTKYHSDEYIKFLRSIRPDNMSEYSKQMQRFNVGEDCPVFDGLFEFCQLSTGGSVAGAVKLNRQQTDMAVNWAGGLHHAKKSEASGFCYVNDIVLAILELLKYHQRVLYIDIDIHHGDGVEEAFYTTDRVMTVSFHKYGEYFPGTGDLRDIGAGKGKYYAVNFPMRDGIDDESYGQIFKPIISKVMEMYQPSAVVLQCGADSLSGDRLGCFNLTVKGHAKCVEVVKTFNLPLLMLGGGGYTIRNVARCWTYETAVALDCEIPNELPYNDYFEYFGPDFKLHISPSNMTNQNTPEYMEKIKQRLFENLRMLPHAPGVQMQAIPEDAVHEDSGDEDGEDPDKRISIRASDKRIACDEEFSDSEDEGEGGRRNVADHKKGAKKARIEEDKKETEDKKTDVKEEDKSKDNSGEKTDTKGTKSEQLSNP
UniProt Q16666: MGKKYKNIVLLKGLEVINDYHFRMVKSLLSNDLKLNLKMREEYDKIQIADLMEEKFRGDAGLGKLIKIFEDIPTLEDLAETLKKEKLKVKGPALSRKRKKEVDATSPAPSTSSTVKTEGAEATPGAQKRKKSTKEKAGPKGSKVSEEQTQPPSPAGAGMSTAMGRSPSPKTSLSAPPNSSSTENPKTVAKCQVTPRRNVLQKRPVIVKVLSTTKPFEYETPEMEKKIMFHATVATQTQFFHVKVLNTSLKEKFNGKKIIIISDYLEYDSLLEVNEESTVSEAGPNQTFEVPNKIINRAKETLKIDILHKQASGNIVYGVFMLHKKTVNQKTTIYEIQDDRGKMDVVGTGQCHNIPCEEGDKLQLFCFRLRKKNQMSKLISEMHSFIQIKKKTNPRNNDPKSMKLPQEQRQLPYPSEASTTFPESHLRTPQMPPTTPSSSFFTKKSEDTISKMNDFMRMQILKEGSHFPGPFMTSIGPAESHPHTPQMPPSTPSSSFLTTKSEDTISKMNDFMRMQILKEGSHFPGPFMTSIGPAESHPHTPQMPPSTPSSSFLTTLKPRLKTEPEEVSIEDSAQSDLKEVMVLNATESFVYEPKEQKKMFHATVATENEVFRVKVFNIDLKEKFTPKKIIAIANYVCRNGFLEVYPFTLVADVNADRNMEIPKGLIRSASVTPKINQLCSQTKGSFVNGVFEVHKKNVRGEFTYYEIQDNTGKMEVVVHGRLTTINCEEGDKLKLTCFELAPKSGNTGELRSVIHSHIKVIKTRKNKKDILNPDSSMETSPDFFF

Legend:
[1] = molecular target: HDAC1, endogenous (human (endogenous in BCBL1, BC3, BJAB, iSLK.219, HEK293T, U2OS)) (UniProt Q13547); assay: co-IP; endogenous/virally expressed proteins; whole-cell lysates (Pierce IP lysis buffer with protease, phosphatase and HDAC inhibitors) of BCBL1, BC3, BJAB or iSLK.219 cells; IP with specific antibody or control IgG on protein A/G beads overnight at 4°C, Western blot; also done after shRNA KD of HDAC1/2 (BCBL1) and siRNA KD of IFI16 (iSLK.219)
[2] = molecular target: HDAC2, endogenous (human (endogenous in BCBL1, BC3, BJAB, iSLK.219, HEK293T, U2OS)) (UniProt Q92769); assay: as above
[3] = molecular target: Interferon-γ-inducible protein 16 (IFI16), endogenous (human (endogenous in BCBL1, BC3, BJAB, iSLK, iSLK.219, U2OS)) (UniProt Q16666); assay: as above
[4] = molecular target: Interferon-γ-inducible protein 16 (IFI16), endogenous (human (endogenous in BCBL1, BC3, BJAB, iSLK, iSLK.219, U2OS)) (UniProt Q16666); assay: proximity ligation; DUOLink PLA on fixed, permeabilised cells with endogenous/virally expressed proteins: BJAB, BCBL1, uninduced TREX-BCBL1, iSLK.219, iSLK de novo infected with KSHV or EdU-KSHV; also after NaB, shHDAC1/2 or siIFI16 treatment

| Substance | binding [1] | binding [2] | binding [3] | binding [4] |
| --- | --- | --- | --- | --- |
| Interferon-γ-inducible protein 16 (IFI16), endogenous (from UniProt Q16666 1-785) | binds | binds |  |  |
| HDAC2, endogenous (from UniProt Q92769 1-488) (enzyme) |  |  | binds | binds |
| HDAC1, endogenous (from UniProt Q13547 1-482) (enzyme) |  |  | binds | binds |
